Data on 2 substances can be found in publication PMC11928053.

By UniProt entry, the sequences of proteins in these tests, tags left out.
UniProt Q9R190: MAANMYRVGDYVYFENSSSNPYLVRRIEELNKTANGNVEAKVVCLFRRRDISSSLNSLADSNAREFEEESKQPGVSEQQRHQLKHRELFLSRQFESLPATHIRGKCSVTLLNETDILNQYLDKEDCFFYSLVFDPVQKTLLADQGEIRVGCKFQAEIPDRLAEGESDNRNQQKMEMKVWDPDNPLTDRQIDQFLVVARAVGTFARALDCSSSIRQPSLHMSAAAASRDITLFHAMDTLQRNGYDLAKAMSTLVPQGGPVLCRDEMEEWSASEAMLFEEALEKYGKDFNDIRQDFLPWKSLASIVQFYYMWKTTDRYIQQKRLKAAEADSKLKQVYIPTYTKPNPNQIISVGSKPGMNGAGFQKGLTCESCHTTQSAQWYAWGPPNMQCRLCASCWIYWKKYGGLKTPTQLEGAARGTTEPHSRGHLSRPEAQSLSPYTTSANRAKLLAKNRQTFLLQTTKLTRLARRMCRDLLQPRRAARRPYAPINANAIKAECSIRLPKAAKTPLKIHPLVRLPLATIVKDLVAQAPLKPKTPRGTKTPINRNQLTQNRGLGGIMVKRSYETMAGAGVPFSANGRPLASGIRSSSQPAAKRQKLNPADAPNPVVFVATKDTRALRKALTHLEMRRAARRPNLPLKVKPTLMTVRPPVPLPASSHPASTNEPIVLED
UniProt Q9GZV5: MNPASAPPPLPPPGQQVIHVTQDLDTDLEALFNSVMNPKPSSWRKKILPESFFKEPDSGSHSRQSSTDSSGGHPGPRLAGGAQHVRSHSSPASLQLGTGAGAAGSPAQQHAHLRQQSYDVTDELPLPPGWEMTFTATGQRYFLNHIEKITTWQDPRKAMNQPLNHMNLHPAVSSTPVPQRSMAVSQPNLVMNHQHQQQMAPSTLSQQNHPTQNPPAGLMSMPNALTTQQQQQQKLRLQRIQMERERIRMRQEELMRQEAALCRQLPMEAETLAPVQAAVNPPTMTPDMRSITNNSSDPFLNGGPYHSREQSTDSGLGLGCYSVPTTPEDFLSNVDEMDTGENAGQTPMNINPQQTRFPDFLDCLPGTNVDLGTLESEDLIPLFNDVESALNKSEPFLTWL
UniProt Q08122: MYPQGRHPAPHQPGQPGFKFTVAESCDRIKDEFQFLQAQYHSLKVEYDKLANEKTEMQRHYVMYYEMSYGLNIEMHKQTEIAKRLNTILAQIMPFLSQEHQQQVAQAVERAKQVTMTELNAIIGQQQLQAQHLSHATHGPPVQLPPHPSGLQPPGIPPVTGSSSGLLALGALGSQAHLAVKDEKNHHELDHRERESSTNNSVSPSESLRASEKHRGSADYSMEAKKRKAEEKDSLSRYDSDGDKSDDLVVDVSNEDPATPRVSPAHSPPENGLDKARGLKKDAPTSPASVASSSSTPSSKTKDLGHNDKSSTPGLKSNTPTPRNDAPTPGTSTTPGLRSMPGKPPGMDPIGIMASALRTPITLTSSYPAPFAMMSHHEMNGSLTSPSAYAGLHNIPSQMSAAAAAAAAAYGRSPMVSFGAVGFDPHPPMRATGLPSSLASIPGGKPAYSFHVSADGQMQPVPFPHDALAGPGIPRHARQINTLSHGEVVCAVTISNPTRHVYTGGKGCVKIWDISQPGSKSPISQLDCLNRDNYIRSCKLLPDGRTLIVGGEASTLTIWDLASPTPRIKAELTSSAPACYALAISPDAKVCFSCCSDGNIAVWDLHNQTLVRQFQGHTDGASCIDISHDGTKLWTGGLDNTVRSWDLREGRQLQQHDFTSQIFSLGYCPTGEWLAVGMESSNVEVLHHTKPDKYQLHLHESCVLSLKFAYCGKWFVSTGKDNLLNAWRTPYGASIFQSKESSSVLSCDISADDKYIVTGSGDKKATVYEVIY

One experiment concerns the target FLAG–MTA2 (UniProt Q9R190). The experiment in a line: co-IP; HEK293T cells co-transfected; 500 μg of extract on anti-FLAG M2 magnetic beads overnight at 4°C, washed three times with PBS, eluted with 3× FLAG peptide, western blot. Background: A western blot detects proteins with antibodies after separation by electrophoresis.
The target in another experiment is FLAG–TAZ (UniProt Q9GZV5). Described as above.

These are yes or no findings as the source states them, for the method shown. Binding seen in cells or lysates may run through a third protein. Some entries that bind do so weakly or less than the wild type.

With HA–TAZ (from UniProt Q9GZV5 1-400), in the experiment with FLAG–MTA2, the binding entry is on record as “binds”.

On to “TLE3 (open reading frame in pcDNA3) (from UniProt Q08122 1-772)”, for which the binding entry with FLAG–TAZ is reported as “binds”.
